Assay results from article PMC5741264.
Read-outs that look alike come from different tables or passages of the source. No constants are given. Whether binding was seen depends on the method and setting. In cells and extracts the contact can be indirect. Some entries that bind do so weakly or less than the wild type. Tags and fused reporters may be left off the sequences shown.

Amino acid sequences for entries named in this document (tags omitted).
UniProt Q8VZS8: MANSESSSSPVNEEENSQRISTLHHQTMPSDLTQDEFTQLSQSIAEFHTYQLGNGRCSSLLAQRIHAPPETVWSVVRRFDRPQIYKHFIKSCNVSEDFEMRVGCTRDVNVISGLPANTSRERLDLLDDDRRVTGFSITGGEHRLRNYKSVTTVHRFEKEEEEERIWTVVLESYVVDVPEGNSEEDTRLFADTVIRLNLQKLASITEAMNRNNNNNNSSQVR

T1: NUP85-Nluc (Arabidopsis thaliana) (UniProt Q8RXH2)
T1 sequence: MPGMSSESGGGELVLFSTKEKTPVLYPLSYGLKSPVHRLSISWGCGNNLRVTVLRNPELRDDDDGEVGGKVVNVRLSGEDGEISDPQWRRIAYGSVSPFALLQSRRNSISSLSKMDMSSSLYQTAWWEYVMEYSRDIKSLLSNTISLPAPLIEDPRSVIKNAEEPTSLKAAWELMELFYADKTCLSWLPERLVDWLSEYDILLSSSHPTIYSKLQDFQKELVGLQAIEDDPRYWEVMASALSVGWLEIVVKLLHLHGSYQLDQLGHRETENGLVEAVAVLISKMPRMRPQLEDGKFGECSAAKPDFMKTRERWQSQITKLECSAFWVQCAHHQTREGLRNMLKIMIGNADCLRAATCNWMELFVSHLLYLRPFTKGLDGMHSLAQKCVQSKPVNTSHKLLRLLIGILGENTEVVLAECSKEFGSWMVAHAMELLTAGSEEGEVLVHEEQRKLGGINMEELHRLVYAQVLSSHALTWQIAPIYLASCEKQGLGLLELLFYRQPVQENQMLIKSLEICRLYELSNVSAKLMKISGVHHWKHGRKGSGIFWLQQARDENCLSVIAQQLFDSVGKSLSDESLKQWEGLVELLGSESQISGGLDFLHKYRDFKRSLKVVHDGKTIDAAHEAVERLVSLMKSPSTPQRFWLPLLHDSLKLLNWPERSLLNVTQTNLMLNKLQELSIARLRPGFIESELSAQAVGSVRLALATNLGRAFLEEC

T2: NUP85-GFP (Arabidopsis thaliana) (UniProt Q8RXH2)
T2 sequence: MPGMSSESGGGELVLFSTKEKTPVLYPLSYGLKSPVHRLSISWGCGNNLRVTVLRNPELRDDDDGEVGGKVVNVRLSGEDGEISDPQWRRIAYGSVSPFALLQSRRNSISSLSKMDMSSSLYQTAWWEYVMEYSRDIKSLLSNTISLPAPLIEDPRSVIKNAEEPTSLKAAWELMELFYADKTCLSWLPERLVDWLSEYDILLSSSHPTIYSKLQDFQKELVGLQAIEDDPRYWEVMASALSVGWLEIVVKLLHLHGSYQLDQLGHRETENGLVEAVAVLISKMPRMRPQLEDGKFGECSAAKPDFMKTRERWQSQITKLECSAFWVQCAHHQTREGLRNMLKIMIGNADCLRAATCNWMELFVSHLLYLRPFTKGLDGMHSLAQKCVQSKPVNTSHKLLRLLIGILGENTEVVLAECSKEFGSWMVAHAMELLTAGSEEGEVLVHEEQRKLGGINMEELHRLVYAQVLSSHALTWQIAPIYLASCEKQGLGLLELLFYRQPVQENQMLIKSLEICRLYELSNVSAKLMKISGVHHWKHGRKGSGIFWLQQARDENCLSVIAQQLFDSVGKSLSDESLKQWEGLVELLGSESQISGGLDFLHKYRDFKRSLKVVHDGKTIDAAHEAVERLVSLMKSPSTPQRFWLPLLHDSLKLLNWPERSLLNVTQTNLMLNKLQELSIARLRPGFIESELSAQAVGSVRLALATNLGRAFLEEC


Experiments:
[1] = target: T1, NUP85-Nluc (Arabidopsis thaliana); test: split reporter; split luciferase complementation in Arabidopsis protoplasts, about 1x10^4 protoplasts per sample co-transformed with nLUC/cLUC plasmids; LUC activity imaged in the dark
[2] = target: T1, NUP85-Nluc (Arabidopsis thaliana); test: as above; remark: listed apart in the source
[3] = target: T2, NUP85-GFP (Arabidopsis thaliana); test: co-IP; NUP85-GFP co-expressed with MED18-HA in Arabidopsis protoplasts; lysate (50 mM Tris-HCl pH 7.5, 150 mM NaCl, 5 mM EDTA, 0.1 Triton X-100) on GFP-Trap beads, at least 4 h; blots with anti-HA and anti-GFP

binding [2] | Molecule | also measured
 | PYL1-Cluc (from UniProt Q8VZS8 1-221) | binding [1]: no binding
binds | Sec13A, split-luciferase fusion (protein, UniProt Q9SRI1 1-302) MPPQKIETGHSDTIHDVVMDYYGKRVATASSDCTIKITGVSNSGGSQHLATLTGHRGPVWQVAWAHPKFGSLLASCSYDGQIILWKEGNQNQWTQAHVFTDHKVSVNSIAWAPHELGLSLACGASDGNISVFSARADGGWDTTKIDQAHPVGVTSVSWAPATEPGALVSSGMIDPVYKLASGGCDSTVKVWKFSNGSWKMDCFPALNKHTDWVRDVAWAPNLGLPKSTIASGSEDGKVIIWTIGKEGEQWEGTVLKDFKTPVWRVSWSLTGNLLAVSDGNNNVTVWKESVDGEWEQVTVVEP | 
binds | MED18-Cluc (protein, UniProt Q9SJZ6 1-219) MSMECVVQGIIETQHVEALEILLQGLCGVQRERLRVHELCLRSGPNLGVVSSEVRLLCDLDQPEPTWTVKHVGGAMRGAGADQISVLVRNMIESKVSKNALRMFYALGYKLDHELLKVGFAFHFQRTAHISVSVSSVNKMPKVHAIDEAVPVTPGMQIVDVTAPATSENYSEVAAAVSSFCEFLAPLVHLSKPSISTGVVPTAAAAAASLMSDGGGTTL | 
 | MED18-HA (protein, UniProt Q9SJZ6 1-219) MSMECVVQGIIETQHVEALEILLQGLCGVQRERLRVHELCLRSGPNLGVVSSEVRLLCDLDQPEPTWTVKHVGGAMRGAGADQISVLVRNMIESKVSKNALRMFYALGYKLDHELLKVGFAFHFQRTAHISVSVSSVNKMPKVHAIDEAVPVTPGMQIVDVTAPATSENYSEVAAAVSSFCEFLAPLVHLSKPSISTGVVPTAAAAAASLMSDGGGTTL | binding [3]: binds
